Measurements published in PubChem BioAssay AID1345085 (National Center for Advancing Translational Sciences (NCATS), 2018).
Inconclusive results, whose numbers are uncertain, are shown with a selection of clear calls. Potencies of inconclusive entries are doubtful fits and often do not repeat. Activity calls are given as the source filed them. The call rests on the fitted dose curve; in most records, active means well fitted cell-killing curve with a large enough effect; inconclusive means small, poorly fitted or top-dose-only effect, or effect the other way; inactive means no such curve, though single readings can be large or run the other way.

Each compound was assayed on C33A (assay: Confirmatory qHTS for gynecologic anti-cancer compounds from libraries of approved drugs and bioactive compounds). Settings: gynecologic cancer cell panel viability, ATPlite luminescence, 48 h; series mostly up to 57.6 µM; activity change, negative = viability loss: at the top concentration.
Summary of the method: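 IC50 values derive from an ATPlite ATP-content luminescence assay following 48 h treatment at 37 C. Each compound ran as an 11-concentration, threefold series (57.5 uM to 0.977 nM); HEK 293T served as control line for selectivity index.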
Further: nearly all actives have a fitted effect of over 55% in size.
On the % scale 0 is the no-effect control and ±100 the full control effect; potency means the concentration at half of the fitted maximal effect.

Structure (SMILES)	Potency	activity change, negative = viability loss
COc1cccc2cc(-c3nc(C4CCC(C(=O)O)CC4)n4ncnc(N)c34)[nH]c12 (configuration not stated)	inconclusive: 7.69 µM [cytotoxic, full curve]	–
COc1cc(N2CCC(N)CC2)ccc1Nc1ncc(Cl)c(-c2c[nH]c3ccccc23)n1	inconclusive: 15.3 µM [cytotoxic, partial curve]	–
Cc1ccc(C(=O)N(CCCN)C(c2oc3cc(Cl)ccc3c(=O)c2Cc2ccccc2)C(C)C)cc1 (configuration not stated)	active: 0.769 µM	–
OCc1ccc(-c2ccc(-c3ccc(CO)s3)o2)s1	–	inactive: -12.9% [at 19.5 µM]
C1CCC(C(CC2CCCCN2)C2CCCCC2)CC1 (configuration not stated)	inconclusive: 38.5 µM [cytotoxic, single point]	–
Nc1cccc(-c2cc3c(Oc4cccc(O)c4)ncnc3[nH]2)c1	–	inactive: -12.5%
Nc1ncn([C@@H]2O[C@H](CO)[C@@H](O)[C@H]2O)c(=O)n1	inconclusive: 5.44 µM [cytotoxic, partial curve]	–
Cc1ccc(C(=O)Nc2ccc(CN3CCN(C)CC3)c(C(F)(F)F)c2)cc1C#Cc1cnc2[nH]ncc2c1	active: 17.2 µM	–
CCc1c2c(nc3ccc(OC(=O)N4CCC(N5CCCCC5)CC4)cc13)-c1cc3c(c(=O)n1C2)COC(=O)[C@]3(O)CC	inconclusive: 5.44 µM [cytotoxic, full curve]	–
CC(C)CC(=O)Nc1n[nH]c2c1CN(C(=O)C1CCN(C)CC1)C2(C)C	inconclusive: 3.06 µM [cytotoxic, full curve]	–
CCN(CC)CCCC(C)Nc1c2ccc(Cl)cc2nc2ccc(OC)cc12 (configuration not stated)	active: 24.3 µM	–
CC[C@@]1(O)C(=O)OCc2c1cc1n(c2=O)Cc2c-1nc1ccccc1c2/C=N/OC(C)(C)C	inconclusive: 0.109 µM [cytotoxic, full curve]	–
CC1=C(/C=C/C(C)=C/C=C/C(C)=C/C(=O)Nc2ccc(O)cc2)C(C)(C)CCC1	active: 3.85 µM	–
CN1CCN(CCOc2cc(OC3CCOCC3)c3c(Nc4c(Cl)ccc5c4OCO5)ncnc3c2)CC1	inconclusive: 0.243 µM [cytotoxic, full curve, poor fit]	–
COc1cc2c(cc1-c1c(C)noc1C)ncc1[nH]c(=O)n(C(C)c3ccccn3)c12 (configuration not stated)	–	inactive: -3.53%
CCn1c(-c2nonc2N)nc2c(C#CC(C)(C)O)ncc(OCC3CCCNC3)c21 (configuration not stated)	inconclusive: 1.53 µM [cytotoxic, full curve]	–

Part of the list above, as a markdown table.

| Structure (SMILES) | Potency | activity change, negative = viability loss |
| --- | --- | --- |
| CC1=C(/C=C/C(C)=C/C=C/C(C)=C/C(=O)Nc2ccc(O)cc2)C(C)(C)CCC1 | active: 3.85 µM | – |
| CN1CCN(CCOc2cc(OC3CCOCC3)c3c(Nc4c(Cl)ccc5c4OCO5)ncnc3c2)CC1 | inconclusive: 0.243 µM [cytotoxic, full curve, poor fit] | – |

The list continues.

Structure (SMILES)	Potency	activity change, negative = viability loss
COc1ccc2cc3[n+](cc2c1OC)CCc1cc2c(cc1-3)OCO2	–	inactive: -16%
O=C(c1ccc(F)c(F)c1Nc1ccc(I)cc1F)N1CC(O)([C@@H]2CCCCN2)C1	active: 27.3 µM	–
Cc1ccc(NC(=O)c2ccc(CN3CCN(C)CC3)cc2)cc1Nc1nccc(-c2cccnc2)n1	–	inactive: -24.7%
CC[C@@]1(O)C(=O)OCc2c1cc1n(c2=O)Cc2cc3c(CN(C)C)c(O)ccc3nc2-1	inconclusive: 0.485 µM [cytotoxic, full curve]	–
COc1cc(-c2nn(C3CCC(N4CCN(C(C)=O)CC4)CC3)c3ncnc(N)c23)ccc1NC(=O)c1cc2ccccc2n1C (configuration not stated)	–	inactive: -12.7%
COCCOc1ccc2c(c1)ncn2-c1ccc2cccc(N3CCC(N)CC3)c2n1	inconclusive: 43.2 µM [cytotoxic, single point]	–
Cc1ccc(C(=O)Nc2ccc(Oc3cc4cnn(C)c4cc3-c3cn[nH]c3)c(F)c2)c(=O)n1-c1ccc(F)cc1	–	inactive: -14.4%
COc1cc(F)c(F)c(Nc2ccc(I)cc2F)c1NS(=O)(=O)C1(CC(O)CO)CC1 (configuration not stated)	–	inactive: 1.44%
CC(=O)c1cnc2ccc(-c3cc(Cl)c(O)c(Cl)c3)nc2c1NC1CCC(CN(C)C)CC1 (configuration not stated)	active: 1.4 µM	–
Cn1cnc2c(F)c(Nc3ccc(Br)cc3F)c(C(=O)NOCCO)cc21	–	inactive: -21.1%
CNC1CCC(N(Cc2cccc(-c3ccncc3)c2)C(=O)c2sc3ccccc3c2Cl)CC1 (configuration not stated)	inconclusive: 43.2 µM [cytotoxic, single point]	–
S=c1nc[nH]c2nc[nH]c12	inconclusive: 3.85 µM [cytotoxic, full curve]	–
O=c1[nH]c(=O)n([C@H]2C[C@H](O)[C@@H](CO)O2)cc1C(F)(F)F	inconclusive: 6.11 µM [cytotoxic, full curve]	–
O=c1c(-c2ccc(O)cc2)coc2cc(O)cc(O)c12	inconclusive: 43.2 µM [cytotoxic, single point]	–
CCS(=O)(=O)N1CCN(c2ccc(Nc3ncc(C(N)=O)c(NC4CC4)n3)cc2)CC1	inconclusive: 24.3 µM [cytotoxic, partial curve, poor fit]	–
Cc1ccc(C(=O)Nc2cccc(C(F)(F)F)c2)cc1-c1ccc2nc(NCCN3CCOCC3)ncc2c1	inconclusive: 3.85 µM [cytotoxic, full curve, poor fit]	–
